Measurements: PMC7694328, “Synthesis and Glycosidase Inhibition Properties of Calix[8]arene-Based Iminosugar Click Clusters” (Pharmaceuticals, 2020)
Certain results were filed several times, with different values. This list holds those alone. There may be further records. The values listed for one entry differ, and nothing given here explains why; dose, time, organism, isomer or construct need not be as stated for each record.

The chains behind the UniProt entries cited, without tags or fusion partners. Residues count along the entry.
UniProt C0HJB3, 1-562 limits assumed: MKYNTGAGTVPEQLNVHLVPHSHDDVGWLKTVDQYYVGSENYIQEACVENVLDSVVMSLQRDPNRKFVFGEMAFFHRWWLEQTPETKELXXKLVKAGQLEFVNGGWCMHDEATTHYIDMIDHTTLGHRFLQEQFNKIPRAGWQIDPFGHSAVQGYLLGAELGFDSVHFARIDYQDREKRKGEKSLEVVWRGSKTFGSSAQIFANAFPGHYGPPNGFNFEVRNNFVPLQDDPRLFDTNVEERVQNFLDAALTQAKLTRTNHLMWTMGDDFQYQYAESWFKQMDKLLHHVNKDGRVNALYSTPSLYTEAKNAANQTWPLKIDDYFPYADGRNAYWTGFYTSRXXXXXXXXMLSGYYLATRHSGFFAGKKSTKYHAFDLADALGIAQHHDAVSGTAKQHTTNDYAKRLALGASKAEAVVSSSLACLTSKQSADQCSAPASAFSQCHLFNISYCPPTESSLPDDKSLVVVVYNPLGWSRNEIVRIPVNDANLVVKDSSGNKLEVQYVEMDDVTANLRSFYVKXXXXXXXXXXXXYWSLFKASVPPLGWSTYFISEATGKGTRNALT
UniProt C0HJB3, 563-981 limits assumed: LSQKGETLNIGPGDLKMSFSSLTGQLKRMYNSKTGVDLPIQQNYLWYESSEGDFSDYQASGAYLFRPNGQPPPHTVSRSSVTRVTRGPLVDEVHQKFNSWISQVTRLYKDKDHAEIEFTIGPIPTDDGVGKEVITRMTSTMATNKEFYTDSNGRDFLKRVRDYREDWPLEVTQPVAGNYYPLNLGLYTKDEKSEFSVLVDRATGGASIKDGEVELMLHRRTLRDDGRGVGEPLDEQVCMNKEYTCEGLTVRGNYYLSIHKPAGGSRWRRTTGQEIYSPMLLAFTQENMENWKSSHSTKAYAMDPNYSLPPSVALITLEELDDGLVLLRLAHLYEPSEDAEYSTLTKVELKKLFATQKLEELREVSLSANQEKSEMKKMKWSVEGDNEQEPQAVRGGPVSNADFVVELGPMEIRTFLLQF

Molecular target: Jack Bean α-mannosidase (JBα-man) (Canavalia ensiformis, UniProt C0HJB3)
Assay: Inhibition assay against Jack Bean α-mannosidase (hydrolysis of p-nitrophenyl-α-D-mannopyranoside)
Conditions: rp/number of DNJ units
Protocol: p-nitrophenyl-α-D-mannopyranoside and α-mannosidase (EC 3.2.1.24, from Jack Bean, Km = 2.0 mM pH 5.5) were purchased from Sigma Aldrich(St. Louis, MO, USA).
General procedure for Inhibition assay with basic quench: Inhibitory potencies were determined spectrophotometrically (Versamax 96-well plate spectrophotometer, Molecular Devices Corporation, Sunnyvale, CA, USA) measuring the residual hydrolytic activities of the mannosidase against p-nitrophenyl-α-D-mannopyranoside in the presence and absence of the inhibitor. All kinetics were performed at 25 °C and started by enzyme addition (0.015 U/mL) in a 100 µL assay medium (acetate buffer, 0.2 M, pH = 5) containing substrate (varying concentration from Km/8 to 2Km value) in presence or absence of various concentrations of inhibitor. After 40–50 min incubation, the reaction was quenched by addition of 1M Na2CO3 (100 µL). The absorbance of the resulting solution was determined at 405 nm. Ki values were determined in duplicate or triplicate, using the Dixon and Lineweaver–Burk graphical methods with Microsoft Excel 97-03, or using non-linear regression with GraphPad Prism 7 Software. […]
General procedure for inhibition assay measured continuously: The release of p-nitrophenol was measured continuously at 385 nm to determine initial velocities. […] Ki values were determined in duplicate or quadruplate, using the Dixon graphical method. […]

- rp/n (relative inhibition potency per DNJ unit): < 1 and 0.5
Compound: CC(C)(C)c1cc2c(OCc3cn(CCCCCCN4C[C@H](O)[C@@H](O)[C@H](O)[C@H]4CO)nn3)c(c1)Cc1cc(C(C)(C)C)cc(c1OCc1cn(CCCCCCN3C[C@H](O)[C@@H](O)[C@H](O)[C@H]3CO)nn1)Cc1cc(C(C)(C)C)cc(c1OCc1cn(CCCCCCN3C[C@H](O)[C@@H](O)[C@H](O)[C@H]3CO)nn1)Cc1cc(C(C)(C)C)cc(c1OCc1cn(CCCCCCN3C[C@H](O)[C@@H](O)[C@H](O)[C@H]3CO)nn1)Cc1cc(C(C)(C)C)cc(c1OCc1cn(CCCCCCN3C[C@H](O)[C@@H](O)[C@H](O)[C@H]3CO)nn1)Cc1cc(C(C)(C)C)cc(c1OCc1cn(CCCCCCN3C[C@H](O)[C@@H](O)[C@H](O)[C@H]3CO)nn1)Cc1cc(C(C)(C)C)cc(c1OCc1cn(CCCCCCN3C[C@H](O)[C@@H](O)[C@H](O)[C@H]3CO)nn1)Cc1cc(C(C)(C)C)cc(c1OCc1cn(CCCCCCN3C[C@H](O)[C@@H](O)[C@H](O)[C@H]3CO)nn1)C2
